In PMC8143644:
No constants are given. Whether binding was seen depends on the method and setting. In cells and extracts the contact can be indirect. Some binding calls cover weakened binding; strength is not graded here. Tags and fused reporters may be left off the sequences shown.

The chains behind the UniProt entries cited, without tags or fusion partners.
UniProt Q9VHP0: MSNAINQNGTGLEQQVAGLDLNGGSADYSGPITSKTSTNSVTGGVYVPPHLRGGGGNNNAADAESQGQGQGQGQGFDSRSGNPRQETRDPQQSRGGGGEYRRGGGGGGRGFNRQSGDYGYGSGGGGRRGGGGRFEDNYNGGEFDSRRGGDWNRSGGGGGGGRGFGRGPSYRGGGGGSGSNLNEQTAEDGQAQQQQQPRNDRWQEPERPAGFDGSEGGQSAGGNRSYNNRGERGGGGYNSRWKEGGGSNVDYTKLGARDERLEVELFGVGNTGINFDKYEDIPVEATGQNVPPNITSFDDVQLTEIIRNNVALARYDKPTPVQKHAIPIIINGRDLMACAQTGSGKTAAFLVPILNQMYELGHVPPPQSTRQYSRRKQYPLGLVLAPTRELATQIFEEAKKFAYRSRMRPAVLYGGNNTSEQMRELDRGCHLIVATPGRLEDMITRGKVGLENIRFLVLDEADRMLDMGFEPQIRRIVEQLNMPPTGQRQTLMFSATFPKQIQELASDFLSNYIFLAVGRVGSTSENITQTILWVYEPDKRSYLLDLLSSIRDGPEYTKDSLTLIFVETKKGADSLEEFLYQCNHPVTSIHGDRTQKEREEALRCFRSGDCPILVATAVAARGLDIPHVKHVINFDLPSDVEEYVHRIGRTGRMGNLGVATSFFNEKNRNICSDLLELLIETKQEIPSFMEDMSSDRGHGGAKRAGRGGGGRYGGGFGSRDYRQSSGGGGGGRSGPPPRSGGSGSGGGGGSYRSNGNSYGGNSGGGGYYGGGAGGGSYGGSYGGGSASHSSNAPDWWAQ

Target: T1, Hrp48 (tagged, expressed in HEK293 cells) (Drosophila melanogaster) (UniProt P48809)
T1 sequence: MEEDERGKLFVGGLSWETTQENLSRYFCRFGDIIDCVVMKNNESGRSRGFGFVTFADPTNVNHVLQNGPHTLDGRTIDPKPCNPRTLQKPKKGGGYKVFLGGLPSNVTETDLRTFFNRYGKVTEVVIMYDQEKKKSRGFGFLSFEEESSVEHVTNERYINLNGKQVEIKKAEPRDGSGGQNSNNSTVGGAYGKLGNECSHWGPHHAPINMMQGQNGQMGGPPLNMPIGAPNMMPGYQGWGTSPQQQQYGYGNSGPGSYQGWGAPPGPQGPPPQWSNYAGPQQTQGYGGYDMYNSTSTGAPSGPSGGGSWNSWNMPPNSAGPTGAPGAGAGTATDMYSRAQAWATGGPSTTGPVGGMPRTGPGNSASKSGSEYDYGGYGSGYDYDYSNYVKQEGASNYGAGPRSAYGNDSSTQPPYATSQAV
Assay: co-IP; HEK293 cells co-transfected with bait and candidate (GFP-tagged bait with HA- or HA-Flag-tagged candidate, GFP-TRAP beads; or HA-Flag-tagged bait with GFP-tagged candidate, anti-Flag antibody); lysates treated with RNase A/T1; Western blot with anti-HA and anti-GFP

Belle (tagged, expressed in HEK293 cells) (from UniProt Q9VHP0 1-798)
binding: binds
